Measured values: article PMC7360774
These are yes or no findings as the source states them, for the method shown. Binding seen in cells or lysates may run through a third protein. A yes stands for co-enrichment or nearness to the bait. Other partners may have been found. Tags and fused reporters may be left off the sequences shown.

Protein sequences, listed by entry. Tags and fused reporters are not part of them.
UniProt P35579: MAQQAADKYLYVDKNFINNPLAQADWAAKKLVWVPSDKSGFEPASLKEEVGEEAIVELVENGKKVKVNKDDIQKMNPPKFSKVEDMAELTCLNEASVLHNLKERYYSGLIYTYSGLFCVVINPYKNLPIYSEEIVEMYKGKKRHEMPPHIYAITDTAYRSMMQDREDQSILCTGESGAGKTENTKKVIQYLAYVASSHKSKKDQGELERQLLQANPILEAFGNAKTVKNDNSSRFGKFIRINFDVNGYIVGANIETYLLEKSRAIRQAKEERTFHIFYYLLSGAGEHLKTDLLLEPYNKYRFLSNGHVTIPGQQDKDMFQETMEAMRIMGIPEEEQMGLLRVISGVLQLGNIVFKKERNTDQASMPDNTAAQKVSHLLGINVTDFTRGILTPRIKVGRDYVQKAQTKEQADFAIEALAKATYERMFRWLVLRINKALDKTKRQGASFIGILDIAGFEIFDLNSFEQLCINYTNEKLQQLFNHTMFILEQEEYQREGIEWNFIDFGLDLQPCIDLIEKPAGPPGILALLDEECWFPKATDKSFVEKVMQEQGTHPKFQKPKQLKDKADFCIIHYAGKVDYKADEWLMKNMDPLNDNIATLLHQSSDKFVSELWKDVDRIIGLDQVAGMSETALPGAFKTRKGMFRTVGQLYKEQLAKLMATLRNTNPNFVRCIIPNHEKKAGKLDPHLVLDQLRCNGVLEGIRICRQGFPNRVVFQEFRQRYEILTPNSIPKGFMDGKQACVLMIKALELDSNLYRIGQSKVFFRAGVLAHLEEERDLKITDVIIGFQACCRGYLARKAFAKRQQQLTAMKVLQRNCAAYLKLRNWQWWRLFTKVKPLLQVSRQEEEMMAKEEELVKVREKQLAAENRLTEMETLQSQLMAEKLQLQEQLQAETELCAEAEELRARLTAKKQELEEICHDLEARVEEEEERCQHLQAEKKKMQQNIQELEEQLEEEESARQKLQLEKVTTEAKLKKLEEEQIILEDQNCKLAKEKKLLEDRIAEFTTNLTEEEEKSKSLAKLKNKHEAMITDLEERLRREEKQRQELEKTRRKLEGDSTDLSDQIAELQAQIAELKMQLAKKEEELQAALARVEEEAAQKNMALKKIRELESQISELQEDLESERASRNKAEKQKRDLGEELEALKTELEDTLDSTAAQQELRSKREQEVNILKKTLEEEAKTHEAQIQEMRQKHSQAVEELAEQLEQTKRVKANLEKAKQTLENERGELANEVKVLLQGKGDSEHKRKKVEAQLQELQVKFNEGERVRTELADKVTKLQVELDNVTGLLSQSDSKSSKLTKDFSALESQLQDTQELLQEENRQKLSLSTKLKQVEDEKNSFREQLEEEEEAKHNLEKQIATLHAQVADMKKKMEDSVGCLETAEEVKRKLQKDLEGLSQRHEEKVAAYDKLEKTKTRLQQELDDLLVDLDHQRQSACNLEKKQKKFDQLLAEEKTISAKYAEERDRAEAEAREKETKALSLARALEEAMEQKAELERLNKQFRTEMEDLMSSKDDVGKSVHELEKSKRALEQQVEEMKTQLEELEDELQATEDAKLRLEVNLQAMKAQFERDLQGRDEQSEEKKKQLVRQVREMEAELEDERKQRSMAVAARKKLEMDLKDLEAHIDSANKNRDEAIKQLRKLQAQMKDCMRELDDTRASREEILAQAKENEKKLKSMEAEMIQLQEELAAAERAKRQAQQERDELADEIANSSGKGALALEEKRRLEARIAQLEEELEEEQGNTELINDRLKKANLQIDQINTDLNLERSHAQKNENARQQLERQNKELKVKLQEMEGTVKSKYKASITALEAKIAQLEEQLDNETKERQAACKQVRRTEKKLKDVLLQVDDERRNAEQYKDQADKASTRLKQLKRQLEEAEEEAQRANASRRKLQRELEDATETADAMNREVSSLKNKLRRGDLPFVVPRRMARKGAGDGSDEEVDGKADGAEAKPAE

Target: T1, Flag-NudCL2 (NudC-like protein 2) (human) (UniProt Q8WVJ2)
T1 sequence: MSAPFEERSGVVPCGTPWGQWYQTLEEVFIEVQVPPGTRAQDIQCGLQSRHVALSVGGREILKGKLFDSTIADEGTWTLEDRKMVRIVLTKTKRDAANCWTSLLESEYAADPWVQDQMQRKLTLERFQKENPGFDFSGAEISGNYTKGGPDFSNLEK
Assay: affinity purification with mass spectrometry; HeLa cells transfected with Flag-NudCL2; immunoprecipitation with anti-FLAG antibody-coupled beads; trypsin digestion, LC-MS/MS

Substance: myosin-9 (endogenous, HeLa) (from UniProt P35579 1-1960)
- binding: binds
